PubChem BioAssay AID743121 | NCATS – 2013
Assay: 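Knock-downs that sensitise breast cancer cells to camptothecin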 (primary screen). Cell system: MDA-MB-231 cells, a human breast cancer line. Knock-down reagent: single siRNA against human genes, 20 nM siRNA (0.8 pmol per well). Timing: 120 h (drug added 48 h after transfection, read 72 h later). Conditions: camptothecin 20 nM (about EC30) for 72 h; vehicle 0.1% DMSO in parallel plates. Read-out: 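CellTiter-Glo ATP signal, scaled to control siRNA as percent viability; sensitisation given as log2 of untreated divided by camptothecin-treated viability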. Direction: log2 vehicle/camptothecin viability: higher = stronger sensitisation to camptothecin. Call rule: 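Each gene scored by redundant siRNA activity (RSA) over its individual siRNA ratios; a gene is called active at p < 0.001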.
Here is an unselected part of about 26,000 reagents. Of all reagents, 167 (0.63%) are marked active. 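Calls are per gene from RSA p-values that are not deposited; an individual active-marked siRNA can sensitise only weakly.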 Entries without a mark were called inactive. The numbers tell different reagents against one gene apart. Not all columns of the deposit are shown.

Against KDM1A (GeneID 23028) #1, the entry reads log2 vehicle/camptothecin viability -0.0825.
Depletion of KDM1A (GeneID 23028) #2 came out at: log2 vehicle/camptothecin viability 0.0184.
Silencing of KDM1A (GeneID 23028) #3 gave: log2 vehicle/camptothecin viability 0.209.
After knock-down of KDM1A (GeneID 23028) #4, the screen gave log2 vehicle/camptothecin viability -0.164.
GPR141 (GeneID 353345) #1 showed log2 vehicle/camptothecin viability -0.212.
Knock-down of GPR141 (GeneID 353345) #2 resulted in: log2 vehicle/camptothecin viability -0.115.
After knock-down of GPR141 (GeneID 353345) #3 the results were log2 vehicle/camptothecin viability 0.0201.
For GPR141 (GeneID 353345) #4, the entry reads log2 vehicle/camptothecin viability -0.0627.
FIBCD1 (GeneID 84929) #1 gave log2 vehicle/camptothecin viability -0.127.
Depletion of FIBCD1 (GeneID 84929) #2 resulted in: log2 vehicle/camptothecin viability -0.579.
Silencing of FIBCD1 (GeneID 84929) #3 resulted in: log2 vehicle/camptothecin viability -0.122.
After knock-down of FIBCD1 (GeneID 84929) #4, the screen gave log2 vehicle/camptothecin viability -0.938.
Depletion of ARSI (GeneID 340075) #1 came out at: log2 vehicle/camptothecin viability -0.516.
Against ARSI (GeneID 340075) #2, the entry reads log2 vehicle/camptothecin viability -0.0941.
Knock-down of ARSI (GeneID 340075) #3 gave: log2 vehicle/camptothecin viability 0.302.
With knock-down of ARSI (GeneID 340075) #4, the screen gave log2 vehicle/camptothecin viability -0.291.
Silencing of BPI (GeneID 671) #1 came out at: log2 vehicle/camptothecin viability -0.308.
Silencing of BPI (GeneID 671) #2 resulted in: log2 vehicle/camptothecin viability -0.208.
For BPI (GeneID 671) #3 the deposit lists log2 vehicle/camptothecin viability -0.342.
For BPI (GeneID 671) #4 the deposit lists log2 vehicle/camptothecin viability 0.26.
SCN5A (GeneID 6331) #1 showed log2 vehicle/camptothecin viability 0.0029.
Knock-down of SCN5A (GeneID 6331) #2 gave: log2 vehicle/camptothecin viability -0.316.
SCN5A (GeneID 6331) #3 gave log2 vehicle/camptothecin viability -0.481.
Knock-down of SCN5A (GeneID 6331) #4 came out at: log2 vehicle/camptothecin viability -0.531.
With knock-down of MED15 (GeneID 51586) #1 the results were log2 vehicle/camptothecin viability -0.564.
Against MED15 (GeneID 51586) #2, the entry reads log2 vehicle/camptothecin viability -0.0407.
Knock-down of MED15 (GeneID 51586) #3 gave: log2 vehicle/camptothecin viability -0.223.
For MED15 (GeneID 51586) #4, the values are log2 vehicle/camptothecin viability 0.602.
IFNA4 (GeneID 3441) #1 showed log2 vehicle/camptothecin viability -0.183.
For IFNA4 (GeneID 3441) #2, the values are log2 vehicle/camptothecin viability -0.389.
Depletion of IFNA4 (GeneID 3441) #3 resulted in: log2 vehicle/camptothecin viability -0.32.
IFNA4 (GeneID 3441) #4 showed log2 vehicle/camptothecin viability -0.165.
IFNA4 (GeneID 3441) #5 showed log2 vehicle/camptothecin viability -0.264.
PCSK6 (GeneID 5046) #1 showed log2 vehicle/camptothecin viability 0.283.
Depletion of PCSK6 (GeneID 5046) #2 resulted in: log2 vehicle/camptothecin viability -0.0112.
PCSK6 (GeneID 5046) #3 gave log2 vehicle/camptothecin viability -0.0212.
PCSK6 (GeneID 5046) #4 scored log2 vehicle/camptothecin viability 0.0762.
TCOF1 (GeneID 6949) #1 scored log2 vehicle/camptothecin viability -0.227.
With knock-down of TCOF1 (GeneID 6949) #2, the screen gave log2 vehicle/camptothecin viability -0.418.
After knock-down of TCOF1 (GeneID 6949) #3, the screen gave log2 vehicle/camptothecin viability 0.588.
TCOF1 (GeneID 6949) #4 scored log2 vehicle/camptothecin viability -0.944.
Depletion of TRIM39 (GeneID 56658) #1 resulted in: log2 vehicle/camptothecin viability -0.00222.
Knock-down of TRIM39 (GeneID 56658) #2 resulted in: log2 vehicle/camptothecin viability -0.209.
TRIM39 (GeneID 56658) #3 showed log2 vehicle/camptothecin viability 0.362.
LAMB1 (GeneID 3912) #1 showed log2 vehicle/camptothecin viability -0.303.
With knock-down of LAMB1 (GeneID 3912) #2, the record shows log2 vehicle/camptothecin viability -0.051.
Against LAMB1 (GeneID 3912) #3 the deposit lists log2 vehicle/camptothecin viability -0.322.

Part of the list above in another layout:
| Target gene | siRNA no. | log2 vehicle/camptothecin viability |
| --- | --- | --- |
| FIBCD1 (GeneID 84929) | 3 | -0.122 |
| FIBCD1 (GeneID 84929) | 4 | -0.938 |
| ARSI (GeneID 340075) | 1 | -0.516 |
